Assay results reported in PubChem BioAssay AID588590 (National Center for Advancing Translational Sciences (NCATS), 2011).
In all, about 390,000 compounds went through this assay and about 4,000 (1%) were called active. The inconclusive results got no clear call from the source; some entries with a clear call stand among them for comparison. Calls come from the whole dose curve; as a rule, active = well fitted inhibition curve with a large enough effect; inconclusive = small, poorly fitted or top-dose-only effect, or another doubt; inactive = no such curve, though single readings can be large or run the other way. Where the call is inconclusive, the potency comes from a doubtful curve fit.

Chains of the proteins cited; added tags and fusions are not shown. Lines headed by an entry give the natural chain unless they say otherwise; changes in a name come on top.
UniProt Q9UNA4: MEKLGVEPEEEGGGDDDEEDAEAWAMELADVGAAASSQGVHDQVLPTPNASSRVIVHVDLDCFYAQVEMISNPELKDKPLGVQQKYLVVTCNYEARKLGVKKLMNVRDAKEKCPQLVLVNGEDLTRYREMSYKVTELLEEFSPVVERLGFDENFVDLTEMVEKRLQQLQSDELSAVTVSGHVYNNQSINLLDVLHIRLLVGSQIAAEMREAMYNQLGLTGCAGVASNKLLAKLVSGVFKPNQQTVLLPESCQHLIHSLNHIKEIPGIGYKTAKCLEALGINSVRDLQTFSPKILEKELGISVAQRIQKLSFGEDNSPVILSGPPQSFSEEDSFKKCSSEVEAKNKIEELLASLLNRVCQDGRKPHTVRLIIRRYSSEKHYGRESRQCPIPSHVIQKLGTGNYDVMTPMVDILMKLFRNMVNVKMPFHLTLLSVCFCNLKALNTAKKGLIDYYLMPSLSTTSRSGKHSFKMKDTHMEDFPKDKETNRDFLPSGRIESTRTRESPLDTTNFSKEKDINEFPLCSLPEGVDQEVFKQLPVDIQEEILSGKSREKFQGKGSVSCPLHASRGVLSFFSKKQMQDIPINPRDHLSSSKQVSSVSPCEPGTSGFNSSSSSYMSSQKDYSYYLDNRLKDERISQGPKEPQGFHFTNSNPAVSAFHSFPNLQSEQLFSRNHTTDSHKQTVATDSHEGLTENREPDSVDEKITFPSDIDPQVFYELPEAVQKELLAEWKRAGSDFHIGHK

These molecules were tested against DNA polymerase iota (Homo sapiens) (UniProt Q9UNA4) (assay: qHTS for Inhibitors of Polymerase Iota). Settings: Pol iota fluorescent replication assay, 10 min; series mostly up to 115 µM.
In short: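 Pol iota at 10 nM preincubated 15 min with compounds at room temperature; reaction started with fluorescent substrate, 50 nM final. Fluorescence read kinetically at 0 and 10 min; buffer-only wells as negative control.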
Potency is the fitted concentration of half-maximal effect.

SMILES | Potency
O=S1(=O)N=C(Nc2cccc(C(F)(F)F)c2)c2ccccc21 | inconclusive: 89.1 µM [inhibitor, single point]
Cc1cc(C(=O)NCc2ccco2)c2ccccc2n1 | inactive
N#CC1=C2C=CC=CN2CC1=O | inconclusive: 17.8 µM [inhibitor, partial curve, poor fit]
COc1ccc(/C=C(\C#N)C(=O)NCCc2ccccc2)cc1OCc1ccccc1 | inactive
Cc1ccc(-c2cc(C(=O)N(C)Cc3cnn(C)c3C)c3cc(Br)ccc3n2)cc1 | inconclusive: 89.1 µM [inhibitor, partial curve]
C[C@H](CO)N1C[C@H](C)[C@@H](CN(C)C(=O)Nc2ccccc2)Oc2ccc(NC(=O)Cn3cnnn3)cc2C1=O | inactive
O=C(COC(=O)c1ccc(O)cc1)Nc1cccc(S(=O)(=O)NC2=NCCCCC2)c1 | inconclusive: 89.1 µM [inhibitor, partial curve, poor fit]
CS(=O)(=O)c1ccc(N)cc1 | inconclusive: 70.8 µM [inhibitor, single point]
Cc1ccc2nc(C)cc(C(=O)OCC(=O)Nc3cccnc3Cl)c2c1 | inactive
COc1ccc(NC(=O)CC(CC(=O)O)c2cc(OC)c(OC)c(OC)c2)cc1 (stereo not given) | inconclusive: 44.7 µM [inhibitor, partial curve, poor fit]
Cc1onc(-c2c(Cl)cccc2Cl)c1C(=O)NC1C(=O)N2C1SC(C)(C)C2C(=O)O (stereo not given) | inactive
Cc1ccc(Cl)cc1NC(=O)C1CCCN(S(=O)(=O)c2c(C)noc2/C=C/N(C)C)C1 (stereo not given) | inconclusive: 89.1 µM [inhibitor, single point]
COc1ccc(Cl)cc1C(=O)NC(=S)Nc1nc(C)cc(C)n1 | inconclusive: 12.6 µM [inhibitor, partial curve, poor fit]
Cc1ccc2nc(/C(C#N)=C/c3ccc(-c4ccc(F)cc4F)o3)[nH]c2c1 | inactive
CSc1ccc(CN(C)C(=O)C2CCN(C(=O)Nc3ccccc3)CC2)cc1 | inconclusive: 0.631 µM [inhibitor, full curve, poor fit]
O=C(C[n+]1cc(Br)cc(Br)c1)c1ccc(-c2ccccc2)cc1 | inconclusive: 3.98 µM [inhibitor, partial curve, poor fit]
CCC(C)NC(=O)Cn1c(=O)n(-c2ccc(OC)cc2)c(=O)c2ccc(C(=O)NCc3ccc(C)cc3)cc21 (stereo not given) | inactive
CCCNC(=O)COc1coc(CN2CCN(c3ccccc3OC)CC2)cc1=O | inconclusive: 89.1 µM [inhibitor, single point]
O=C(O)CCS(=O)(=O)c1cccc2cccnc12 | inactive
O=C(NCC1CCCCC1)c1cc2ccccc2cc1O | inactive
NC(=O)c1ccc(NC(=O)COc2ccc(-n3cnnn3)cc2)cc1 | inconclusive: 50.1 µM [inhibitor, partial curve, poor fit]
O=[N+]([O-])c1ccccc1N=Nc1ccc(O)cc1O | inconclusive: 15.8 µM [inhibitor, full curve, poor fit]

A draw from above in order of length of the SMILES, rising.
SMILES | Potency
CS(=O)(=O)c1ccc(N)cc1 | inconclusive: 70.8 µM [inhibitor, single point]
O=C(NCC1CCCCC1)c1cc2ccccc2cc1O | inactive
Cc1cc(C(=O)NCc2ccco2)c2ccccc2n1 | inactive
COc1ccc(Cl)cc1C(=O)NC(=S)Nc1nc(C)cc(C)n1 | inconclusive: 12.6 µM [inhibitor, partial curve, poor fit]
O=S1(=O)N=C(Nc2cccc(C(F)(F)F)c2)c2ccccc21 | inconclusive: 89.1 µM [inhibitor, single point]
NC(=O)c1ccc(NC(=O)COc2ccc(-n3cnnn3)cc2)cc1 | inconclusive: 50.1 µM [inhibitor, partial curve, poor fit]
O=C(C[n+]1cc(Br)cc(Br)c1)c1ccc(-c2ccccc2)cc1 | inconclusive: 3.98 µM [inhibitor, partial curve, poor fit]
CSc1ccc(CN(C)C(=O)C2CCN(C(=O)Nc3ccccc3)CC2)cc1 | inconclusive: 0.631 µM [inhibitor, full curve, poor fit]
COc1ccc(NC(=O)CC(CC(=O)O)c2cc(OC)c(OC)c(OC)c2)cc1 (stereo not given) | inconclusive: 44.7 µM [inhibitor, partial curve, poor fit]
Cc1ccc2nc(/C(C#N)=C/c3ccc(-c4ccc(F)cc4F)o3)[nH]c2c1 | inactive
O=C(COC(=O)c1ccc(O)cc1)Nc1cccc(S(=O)(=O)NC2=NCCCCC2)c1 | inconclusive: 89.1 µM [inhibitor, partial curve, poor fit]
Cc1ccc(Cl)cc1NC(=O)C1CCCN(S(=O)(=O)c2c(C)noc2/C=C/N(C)C)C1 (stereo not given) | inconclusive: 89.1 µM [inhibitor, single point]

Next part.

SMILES | Potency
Cc1ccc(CN2CC(C(=O)Nc3ccc(F)c([N+](=O)[O-])c3)CC2=O)cc1 (stereo not given) | inconclusive: 17.8 µM [inhibitor, full curve, poor fit]
Cn1nccc1NC(=O)Nc1ccccc1 | inactive
O=C(Cn1cc(COc2ccccc2C(F)(F)F)nn1)c1ccc(O)cc1 | active: 5.01 µM
COCCCN1C(=O)C(=O)/C(=C(/O)c2ccc(S(=O)(=O)N3CCCCC3)cc2)C1c1ccc(F)cc1 (stereo not given) | inconclusive: 17.8 µM [inhibitor, single point]
Cc1c2ccccc2cc[n+]1C | inactive
CN(C)c1ccc(/C=C(\C#N)c2nc3ccccc3c(=O)[nH]2)cc1 | inconclusive: 89.1 µM [inhibitor, single point]
Cc1ccccc1NC(=O)Cn1c(=O)n(Cc2ccco2)c(=O)c2cccnc21 | inconclusive: 89.1 µM [inhibitor, partial curve, poor fit]
Cc1ccc(C)c(-n2ccnc2SCC(=O)c2c(N)n(C3CC3)c(=O)[nH]c2=O)c1 | inconclusive: 39.8 µM [inhibitor, single point]
CC(c1ccc(F)cc1)n1c(-c2ccc3ccccc3n2)n[nH]c1=S (stereo not given) | inconclusive: 89.1 µM [inhibitor, partial curve, poor fit]
O=C(O)c1ccc(-n2[nH]c3c(c2=O)CCCC3)cc1 | inconclusive: 20 µM [inhibitor, partial curve, poor fit]
CN(C)C(=O)N1CCCC(C(=O)NCc2ccc(F)cc2Cl)C1 (stereo not given) | inconclusive: 89.1 µM [inhibitor, single point]
CCOC(=O)c1ccc(-n2c(N)c(C(=O)NCc3ccco3)sc2=S)cc1 | inconclusive: 39.8 µM [inhibitor, partial curve, poor fit]
CCN(CC)Cc1c(O)ccc2c(=O)c(Oc3ccccc3OC)coc12 | inactive
COc1cc2nc(N3CCCN(C)CC3)nc(NC3CCNCC3)c2cc1OC | inconclusive: 39.8 µM [inhibitor, partial curve]
Cc1cc(C2=NNC(=NCCc3ccccc3)SC2)c(C)n1CC1CCCO1 (stereo not given) | inactive
COc1cccc(-c2nc(CS(=O)(=O)CC(=O)NCCCc3ccccc3)c(C)o2)c1 | inconclusive: 100 µM [inhibitor, single point]
O=S(=O)(c1ccccc1)N1CCC2(CC1)OCCN2S(=O)(=O)c1cccs1 | inconclusive: 79.4 µM [inhibitor, partial curve, poor fit]
COc1ccccc1C(=O)NC(=S)Nc1ccc(Cc2ccncc2)cc1 | inconclusive: 44.7 µM [inhibitor, partial curve]
COc1cccc(/C=C/c2nccc3ccccc23)c1OC | inactive
COc1ccccc1CNC(=O)c1ccc(CNc2c(N3CCCC3)c(=O)c2=O)cc1 | inconclusive: 17.8 µM [inhibitor, partial curve, poor fit]
Cc1sc2nc(CSCC(=O)Nc3c(Cl)cccc3Cl)[nH]c(=O)c2c1C | inactive
CCN(CC)N=Nc1cccc(NC(C)=O)c1 | inconclusive: 100 µM [inhibitor, partial curve, poor fit]

SMILES | Potency
O=C(CCn1c(=O)[nH]c2ccsc2c1=O)N1CCN(Cc2ccc3c(c2)OCO3)CC1 | inconclusive: 0.891 µM [inhibitor, full curve, poor fit]
CCc1ccc(C(=O)c2cn(CC(=O)Nc3ccc(OC)c(Cl)c3)c3nc(C)ccc3c2=O)cc1 | inconclusive: 89.1 µM [inhibitor, partial curve, poor fit]
CC1=C(C(=O)OCc2ccccc2)C(c2ccccc2Cl)NC(=O)N1CCCCCC(=O)O (stereo not given) | inactive
CCOC(=O)C1CCN(Cc2ccc(OC)c(OCc3ccccc3)c2)CC1 | inconclusive: 39.8 µM [inhibitor, single point]
Cn1cc(SCC(=O)Nc2nc3ccccc3s2)c2ccccc21 | inconclusive: 10 µM [inhibitor, partial curve, poor fit]
CCC(C)COC(c1ccccc1)(c1ccccc1)C(Oc1nc(C)cc(C)n1)C(=O)O (stereo not given) | active: 79.4 µM
CC(CNc1nc2ccccc2n2cnnc12)c1ccccc1 (stereo not given) | inconclusive: 10 µM [inhibitor, full curve, poor fit]
O=C(c1ccc2nc[nH]c2c1)N1CCN(S(=O)(=O)c2cccc(F)c2)CC1 | inconclusive: 25.1 µM [inhibitor, full curve, poor fit]
O=C1N=C2SCCN2/C1=C\c1c(Cl)cccc1Cl | inconclusive: 15.8 µM [inhibitor, partial curve, poor fit]
CCOC(=O)N1CCN(C2=C(NS(=O)(=O)c3ccccc3)C(=O)c3ccccc3C2=O)CC1 | inconclusive: 25.1 µM [inhibitor, single point]
Cc1nc2c(C(=O)NCc3ccc4c(c3)OCO4)c[nH]n2c(=O)c1Cc1ccccc1F | inconclusive: 56.2 µM [inhibitor, partial curve, poor fit]
C/C(=N/NS(=O)(=O)c1ccccc1)c1c[nH]c2ccccc12 | active: 89.1 µM
CCCCC(CC)CNC(=O)CCS(=O)(=O)c1cccc2nsnc12 (stereo not given) | inconclusive: 39.8 µM [inhibitor, single point]
N#Cc1c(-c2ccccc2)cc(-c2ccccc2)nc1SCC(=O)Nc1ccc(Cl)cc1 | inactive
COc1cc(/C=C2\C(=N)N3N=C(C)SC3=NC2=O)cc(Cl)c1OCCOc1ccc(NC(C)=O)cc1 | inconclusive: 15.8 µM [inhibitor, partial curve, poor fit]
Cc1cc(CSc2ccccc2)ccc1NC(=O)c1ccc(Cl)c([N+](=O)[O-])c1 | inconclusive: 39.8 µM [inhibitor, single point]
CC(=O)[C@@H]1[C@@H]2C(=O)N(Cc3ccccc3)C(=O)[C@@H]2C2c3ccccc3C=CN21 (stereo not given in full) | inconclusive: 28.2 µM [inhibitor, partial curve]
CC(=O)Nc1ccc(S(=O)(=O)NCCSc2ccccn2)cc1 | inconclusive: 39.8 µM [inhibitor, single point]
O=C(Nc1ccc(S(=O)(=O)N2CCCCC2)cc1)c1cccnc1Cl | inconclusive: 10 µM [inhibitor, partial curve, poor fit]
Cc1cc(C)c(Nc2cc(S(=O)(=O)O)c(N)c3c2C(=O)c2ccccc2C3=O)c(C)c1 | inconclusive: 31.6 µM [inhibitor, full curve, poor fit]
CC(C)c1ccc(Nc2cc(C(=O)NCc3cccs3)c3ccccc3n2)cc1 | inactive
